According to the supplement of paper PMC10849652:
The list shows a part of the results.

Sequences of proteins named here, by UniProt entry; tags and fusion partners are left off. A change or cut given only in a name is not applied to a line headed by its entry.
UniProt Q658Y4: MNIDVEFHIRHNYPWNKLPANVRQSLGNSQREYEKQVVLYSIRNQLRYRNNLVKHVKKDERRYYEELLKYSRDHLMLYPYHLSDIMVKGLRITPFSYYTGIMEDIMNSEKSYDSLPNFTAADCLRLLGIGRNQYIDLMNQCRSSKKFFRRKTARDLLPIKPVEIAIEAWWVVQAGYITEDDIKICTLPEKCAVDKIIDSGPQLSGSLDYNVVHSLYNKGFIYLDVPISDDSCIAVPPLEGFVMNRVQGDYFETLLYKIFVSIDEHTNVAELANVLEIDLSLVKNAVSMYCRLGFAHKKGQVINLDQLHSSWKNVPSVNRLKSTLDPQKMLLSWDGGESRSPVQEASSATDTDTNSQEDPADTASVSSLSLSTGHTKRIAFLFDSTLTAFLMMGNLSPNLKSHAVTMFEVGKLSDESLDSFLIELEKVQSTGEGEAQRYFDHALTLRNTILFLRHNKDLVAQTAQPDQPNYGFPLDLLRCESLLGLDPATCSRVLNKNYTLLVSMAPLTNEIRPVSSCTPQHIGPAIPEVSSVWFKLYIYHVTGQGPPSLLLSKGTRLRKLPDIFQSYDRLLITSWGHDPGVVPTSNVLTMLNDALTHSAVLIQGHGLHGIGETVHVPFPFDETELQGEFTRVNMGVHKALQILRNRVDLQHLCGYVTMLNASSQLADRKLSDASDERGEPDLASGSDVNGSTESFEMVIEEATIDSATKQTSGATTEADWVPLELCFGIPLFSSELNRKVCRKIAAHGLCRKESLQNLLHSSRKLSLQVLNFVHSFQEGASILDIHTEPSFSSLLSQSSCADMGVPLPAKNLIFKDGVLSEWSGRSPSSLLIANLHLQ
UniProt Q8NB91: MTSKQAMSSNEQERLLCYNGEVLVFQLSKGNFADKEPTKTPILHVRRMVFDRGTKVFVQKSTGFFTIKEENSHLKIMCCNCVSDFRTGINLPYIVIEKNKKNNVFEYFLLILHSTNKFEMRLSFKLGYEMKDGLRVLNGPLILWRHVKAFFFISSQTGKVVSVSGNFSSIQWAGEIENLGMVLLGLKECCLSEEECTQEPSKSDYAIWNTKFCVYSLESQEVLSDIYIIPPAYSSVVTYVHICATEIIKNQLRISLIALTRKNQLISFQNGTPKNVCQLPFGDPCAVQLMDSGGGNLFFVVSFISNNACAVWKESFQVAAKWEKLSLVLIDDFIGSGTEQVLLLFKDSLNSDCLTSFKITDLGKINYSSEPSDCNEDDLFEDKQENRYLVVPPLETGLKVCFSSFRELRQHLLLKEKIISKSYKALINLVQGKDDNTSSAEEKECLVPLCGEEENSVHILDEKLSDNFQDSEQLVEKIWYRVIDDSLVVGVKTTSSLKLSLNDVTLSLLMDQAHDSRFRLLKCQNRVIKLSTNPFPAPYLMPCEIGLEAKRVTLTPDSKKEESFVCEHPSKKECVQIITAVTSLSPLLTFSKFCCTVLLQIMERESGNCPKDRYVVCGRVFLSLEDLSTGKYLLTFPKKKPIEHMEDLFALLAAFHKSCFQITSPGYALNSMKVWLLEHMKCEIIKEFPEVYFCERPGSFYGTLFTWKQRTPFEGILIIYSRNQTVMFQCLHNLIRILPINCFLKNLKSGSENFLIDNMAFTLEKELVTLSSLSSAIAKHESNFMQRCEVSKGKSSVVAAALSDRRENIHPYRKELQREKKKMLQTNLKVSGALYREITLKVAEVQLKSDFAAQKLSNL
UniProt Q9UK97: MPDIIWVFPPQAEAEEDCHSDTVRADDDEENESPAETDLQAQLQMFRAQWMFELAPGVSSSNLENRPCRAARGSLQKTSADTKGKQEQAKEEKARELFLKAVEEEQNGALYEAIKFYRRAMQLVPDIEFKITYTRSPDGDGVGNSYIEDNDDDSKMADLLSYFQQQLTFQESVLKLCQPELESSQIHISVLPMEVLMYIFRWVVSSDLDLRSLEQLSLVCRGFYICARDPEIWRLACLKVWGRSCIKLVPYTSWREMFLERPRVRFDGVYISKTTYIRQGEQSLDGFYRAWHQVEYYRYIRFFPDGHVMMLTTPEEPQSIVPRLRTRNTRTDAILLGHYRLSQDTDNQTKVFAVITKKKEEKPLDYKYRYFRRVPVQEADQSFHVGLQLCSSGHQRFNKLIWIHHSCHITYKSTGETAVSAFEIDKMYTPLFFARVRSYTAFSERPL
UniProt Q96C11: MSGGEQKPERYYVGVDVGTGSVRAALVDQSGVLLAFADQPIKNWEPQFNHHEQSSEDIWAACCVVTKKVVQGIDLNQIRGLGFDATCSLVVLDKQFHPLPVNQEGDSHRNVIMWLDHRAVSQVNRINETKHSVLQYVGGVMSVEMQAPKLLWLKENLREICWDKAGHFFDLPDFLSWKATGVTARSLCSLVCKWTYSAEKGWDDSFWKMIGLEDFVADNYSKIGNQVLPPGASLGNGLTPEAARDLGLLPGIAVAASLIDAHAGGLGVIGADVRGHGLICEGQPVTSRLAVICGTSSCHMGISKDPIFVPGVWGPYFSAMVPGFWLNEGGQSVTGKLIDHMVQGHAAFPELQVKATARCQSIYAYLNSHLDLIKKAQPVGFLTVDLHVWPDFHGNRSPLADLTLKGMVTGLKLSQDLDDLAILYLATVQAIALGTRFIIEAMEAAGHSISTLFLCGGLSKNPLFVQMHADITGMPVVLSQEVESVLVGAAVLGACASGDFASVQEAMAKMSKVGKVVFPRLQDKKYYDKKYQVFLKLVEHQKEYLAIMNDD
UniProt Q96AC1: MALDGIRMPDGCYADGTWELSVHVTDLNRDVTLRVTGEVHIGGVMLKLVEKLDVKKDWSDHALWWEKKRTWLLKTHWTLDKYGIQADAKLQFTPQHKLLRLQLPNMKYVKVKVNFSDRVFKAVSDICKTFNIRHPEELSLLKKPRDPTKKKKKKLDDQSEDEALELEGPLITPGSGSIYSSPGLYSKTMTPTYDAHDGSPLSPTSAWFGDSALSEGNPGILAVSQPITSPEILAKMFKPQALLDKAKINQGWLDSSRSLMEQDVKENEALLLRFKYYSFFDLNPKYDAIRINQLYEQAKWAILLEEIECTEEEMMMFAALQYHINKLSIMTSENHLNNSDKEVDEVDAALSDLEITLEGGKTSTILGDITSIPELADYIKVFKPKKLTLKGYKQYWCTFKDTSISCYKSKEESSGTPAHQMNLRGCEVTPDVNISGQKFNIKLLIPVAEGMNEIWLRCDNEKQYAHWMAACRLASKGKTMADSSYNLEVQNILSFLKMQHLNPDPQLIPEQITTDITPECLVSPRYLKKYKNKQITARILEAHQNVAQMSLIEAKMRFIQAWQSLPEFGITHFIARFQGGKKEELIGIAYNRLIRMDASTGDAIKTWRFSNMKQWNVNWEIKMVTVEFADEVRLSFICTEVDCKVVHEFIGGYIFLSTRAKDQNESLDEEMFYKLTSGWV
UniProt Q8TB52: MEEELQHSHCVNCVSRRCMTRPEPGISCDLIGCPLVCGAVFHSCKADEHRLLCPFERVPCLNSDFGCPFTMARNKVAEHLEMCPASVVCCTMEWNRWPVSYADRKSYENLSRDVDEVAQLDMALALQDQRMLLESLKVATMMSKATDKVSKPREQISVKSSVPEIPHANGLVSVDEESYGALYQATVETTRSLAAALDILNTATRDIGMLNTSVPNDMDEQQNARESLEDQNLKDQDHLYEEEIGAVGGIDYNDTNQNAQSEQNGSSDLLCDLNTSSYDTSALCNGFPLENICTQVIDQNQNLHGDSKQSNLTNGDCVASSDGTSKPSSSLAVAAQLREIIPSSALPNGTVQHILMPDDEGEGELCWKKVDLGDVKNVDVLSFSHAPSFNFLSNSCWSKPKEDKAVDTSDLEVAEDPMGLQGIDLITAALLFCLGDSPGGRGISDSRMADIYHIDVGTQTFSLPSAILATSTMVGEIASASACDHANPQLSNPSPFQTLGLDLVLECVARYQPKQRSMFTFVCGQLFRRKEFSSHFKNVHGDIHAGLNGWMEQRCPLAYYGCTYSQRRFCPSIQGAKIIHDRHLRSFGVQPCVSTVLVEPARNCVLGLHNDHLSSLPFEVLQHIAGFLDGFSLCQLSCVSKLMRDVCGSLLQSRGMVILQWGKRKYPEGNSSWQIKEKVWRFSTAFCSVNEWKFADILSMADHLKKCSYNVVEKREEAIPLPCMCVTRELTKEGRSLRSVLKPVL
UniProt Q9Y613: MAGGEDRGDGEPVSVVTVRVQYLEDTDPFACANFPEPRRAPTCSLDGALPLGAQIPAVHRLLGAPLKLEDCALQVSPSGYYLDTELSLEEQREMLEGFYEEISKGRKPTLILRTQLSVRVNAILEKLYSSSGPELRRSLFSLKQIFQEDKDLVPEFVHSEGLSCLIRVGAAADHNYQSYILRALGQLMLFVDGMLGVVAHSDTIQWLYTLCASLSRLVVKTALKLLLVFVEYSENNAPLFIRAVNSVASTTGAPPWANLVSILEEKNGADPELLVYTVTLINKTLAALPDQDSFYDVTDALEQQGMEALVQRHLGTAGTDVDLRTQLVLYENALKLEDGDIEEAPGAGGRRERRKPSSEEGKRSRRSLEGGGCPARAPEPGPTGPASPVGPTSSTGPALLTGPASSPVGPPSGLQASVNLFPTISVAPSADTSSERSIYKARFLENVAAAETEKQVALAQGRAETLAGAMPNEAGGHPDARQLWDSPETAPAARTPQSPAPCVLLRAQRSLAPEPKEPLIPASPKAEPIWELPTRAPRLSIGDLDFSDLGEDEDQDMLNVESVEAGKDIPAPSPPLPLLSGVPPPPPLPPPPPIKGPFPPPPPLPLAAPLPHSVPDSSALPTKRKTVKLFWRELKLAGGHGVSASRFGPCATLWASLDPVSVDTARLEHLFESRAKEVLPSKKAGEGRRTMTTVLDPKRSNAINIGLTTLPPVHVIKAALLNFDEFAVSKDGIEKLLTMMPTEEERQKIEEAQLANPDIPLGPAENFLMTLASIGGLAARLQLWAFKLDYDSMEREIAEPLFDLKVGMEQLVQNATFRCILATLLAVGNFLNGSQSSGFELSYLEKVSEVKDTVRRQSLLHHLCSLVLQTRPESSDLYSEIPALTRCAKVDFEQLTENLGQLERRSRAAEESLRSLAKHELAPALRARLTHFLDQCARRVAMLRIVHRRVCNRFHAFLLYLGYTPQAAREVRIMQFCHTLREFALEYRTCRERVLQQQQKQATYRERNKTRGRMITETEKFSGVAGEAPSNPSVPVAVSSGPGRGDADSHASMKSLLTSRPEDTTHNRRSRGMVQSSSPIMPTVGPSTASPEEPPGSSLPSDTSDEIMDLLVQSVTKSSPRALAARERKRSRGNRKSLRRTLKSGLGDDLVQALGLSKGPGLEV
UniProt Q9NYY8: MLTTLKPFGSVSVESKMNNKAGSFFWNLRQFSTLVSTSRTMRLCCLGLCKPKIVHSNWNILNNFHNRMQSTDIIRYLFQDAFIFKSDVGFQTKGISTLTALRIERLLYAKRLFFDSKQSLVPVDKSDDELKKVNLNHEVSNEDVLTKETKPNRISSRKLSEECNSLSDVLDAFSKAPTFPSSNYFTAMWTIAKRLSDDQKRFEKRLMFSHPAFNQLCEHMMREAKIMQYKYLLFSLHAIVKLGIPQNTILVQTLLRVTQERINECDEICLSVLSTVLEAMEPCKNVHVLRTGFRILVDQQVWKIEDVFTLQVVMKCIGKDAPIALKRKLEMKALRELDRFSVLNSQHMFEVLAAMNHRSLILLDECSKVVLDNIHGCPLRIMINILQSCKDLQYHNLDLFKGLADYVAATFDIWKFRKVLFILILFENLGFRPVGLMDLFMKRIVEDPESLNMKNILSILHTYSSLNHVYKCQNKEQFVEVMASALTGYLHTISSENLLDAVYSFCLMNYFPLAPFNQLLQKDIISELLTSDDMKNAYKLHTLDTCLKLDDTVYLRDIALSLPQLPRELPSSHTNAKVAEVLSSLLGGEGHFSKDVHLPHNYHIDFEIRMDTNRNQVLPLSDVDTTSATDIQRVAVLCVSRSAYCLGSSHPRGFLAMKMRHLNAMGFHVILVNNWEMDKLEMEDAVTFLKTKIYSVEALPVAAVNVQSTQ
UniProt O95684: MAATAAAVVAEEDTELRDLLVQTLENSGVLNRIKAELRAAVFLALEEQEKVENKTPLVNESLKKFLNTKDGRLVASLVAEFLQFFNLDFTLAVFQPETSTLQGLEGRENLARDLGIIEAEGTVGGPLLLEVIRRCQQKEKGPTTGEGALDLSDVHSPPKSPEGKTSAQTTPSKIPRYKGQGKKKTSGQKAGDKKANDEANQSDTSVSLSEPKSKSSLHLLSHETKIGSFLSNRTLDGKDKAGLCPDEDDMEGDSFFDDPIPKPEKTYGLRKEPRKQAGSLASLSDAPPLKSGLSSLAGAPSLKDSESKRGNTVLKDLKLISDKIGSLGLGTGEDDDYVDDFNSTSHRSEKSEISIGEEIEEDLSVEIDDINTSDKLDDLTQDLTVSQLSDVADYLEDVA

Tests used:
Experiment in all cases: log2 fold change, soluble protein after heating vs DMSO (PISA); higher = thermal stabilisation; K562 lysate, 10 uM; active = over 0.2 and 3.5 SD of the protein, either way, in both replicates (recomputed)
erlotinib = compound: C#Cc1cccc(Nc2ncnc3cc(OCCOC)c(OCCOC)cc23)c1 [erlotinib]
Outline: (§1)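 Quantification was by TMTpro 16plex LC-MS/MS with equalised channel sums, applied to the supernatant after 21,000xg for 90 min. Samples were crude K562 extract at 1 mg/mL protein in PBS pH 7.4 with 1 mM MgCl2, treated with 10 μM compound for 30 min, heated for 3 min across 48°C-58°C, pooled and brought to 0.5% NP-40 at 4°C. Values are log-two fold changes in thermal stability relative to solvent controls, from duplicates.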

[1] = compound: C/C(=N\NC(=O)C1=CC(=CC=C1)S(=O)(=O)N2CCOCC2)/C3=C(C=CC(=C3)Cl)O
Outline: as §1

[2] = compound: C1=CC(=CC=C1C2=NC3=C(N2)C=C(C=C3)C(=O)N)OC4=CC=C(C=C4)Cl
Outline: as §1

[3] = compound: C1=CC2=C(C=CC(=C2)/C=C\3/C(=O)NC(=NCC4=CC=CS4)S3)N=C1
Outline: as §1

[4] = compound: C1=CC2=NC=CN=C2C=C1/C=C/3\C(=O)NC(=O)S3
Outline: as §1

[5] = compound: C1=CC=C(C=C1)C2=NC(=C(N2)C3=CC=NC=C3)C4=CC(=C(C=C4)Cl)O
Outline: as §1

[6] = compound: C1=CC=C2C(=C1)C3=NNC4=CC=CC(=C43)C2=O
Outline: as §1

[7] = compound: C1CCN(C1)C(=O)NC2=CC=CC(=C2)NC3=NC=C(C(=N3)NCCC4=CN=CN4)Br
Outline: as §1

[8] = compound: C1CN(CCC1(CC2=CC=C(C=C2)Cl)N)C3=NC=NC4=C3C=CN4
Outline: as §1

IRAK-1-4 Inhibitor I = compound: C1COCCN1CCN2C3=CC=CC=C3N=C2NC(=O)C4=CC(=CC=C4)[N+](=O)[O-] [IRAK-1-4 Inhibitor I]
Outline: as §1

ibrutinib = compound: C=CC(=O)N1CCC[C@@H](n2nc(-c3ccc(Oc4ccccc4)cc3)c3c(N)ncnc32)C1 [ibrutinib]
Outline: as §1

[9] = compound: CC(=O)c1cnc2ccc(-c3cc(Cl)c(O)c(Cl)c3)nc2c1N[C@H]1CC[C@H](CN(C)C)CC1
Outline: as §1

ralimetinib = compound: CC(C)(C)Cn1c(N)nc2ccc(-c3[nH]c(C(C)(C)C)nc3-c3ccc(F)cc3)nc21 [ralimetinib]
Outline: as §1

[10] = compound: CC(C)(O)CC(=O)NCCn1ccc2ncnc(Nc3ccc(Oc4cccc(C(F)(F)F)c4)c(Cl)c3)c21
Outline: as §1

[11] = compound: CC(C)C1=C2N=C(C=C(N2N=C1)NCC3=CC=CC=C3)NCCCCCCN
Outline: as §1

[12] = compound: CC1=C(C(CC(=O)N1)C2=CC=C(C=C2)C(F)(F)F)C(=O)NC3=C(C=C4C(=C3)C=NN4)F
Outline: as §1

[13] = compound: CC1=C(C2=C(C=C1)C(=O)C3=CC=CC=C3N2CCCN)C
Outline: as §1

[14] = compound: CC1=C(C=C(C=C1)NC(=O)C2=CC(=CC=C2)C(C)(C)C#N)NC3=CC4=C(C=C3)N=CN(C4=O)C
Outline: as §1

[15] = compound: CC1=C(C=C(C=C1)NC(=O)C2=CC(=CC=C2)N(C)C)NC(=O)C3=CC=C(C=C3)O
Outline: as §1

[16] = compound: CC1=CC=C(C=C1)SC2=C3C=C(SC3=CN=C2)C(=O)N
Outline: as §1

Measured: log2 fold change

FAM91A1 (UniProt Q658Y4)
inactive: erlotinib 0.006 | [1] 0.001 | [2] 0.033 | [3] 0.024 | [4] 0.058 | [5] -0.023 | [6] 0.054 | [7] 0.01 | [8] 0.001 | IRAK-1-4 Inhibitor I 0.023 | ibrutinib 0.016 | [9] 0.003 | ralimetinib 0.022 | [10] -0.018 | [11] -0.011 | [12] -0.014 | [13] 0.009 | [14] 0.003 | [15] -0.04 | [16] 0

FBXO38 (UniProt Q6PIJ6)
inactive: erlotinib 0.102 | [1] 0.041 | [2] 0.013 | [3] -0.047 | [4] -0.041 | [5] 0.06 | [6] 0.077 | [7] -0.06 | [8] 0.021 | IRAK-1-4 Inhibitor I -0.052 | ibrutinib -0.042 | [9] 0.063 | ralimetinib 0.083 | [10] 0.009 | [11] -0.078 | [12] -0.037 | [13] -0.073 | [14] -0.098 | [15] 0.009 | [16] 0.175

FANCB (UniProt Q8NB91)
inactive: erlotinib -0.023 | [1] -0.059 | [2] 0.039 | [3] -0.115 | [4] 0.042 | [5] -0.044 | [6] -0.075 | [7] 0.028 | [8] 0.013 | IRAK-1-4 Inhibitor I 0.031 | ibrutinib 0.027 | [9] 0.06 | ralimetinib 0.026 | [10] 0.012 | [11] 0.02 | [12] -0.106 | [13] -0.031 | [14] 0.005 | [15] -0.007 | [16] -0.029

FBXO9 (UniProt Q9UK97)
inactive: erlotinib -0.06 | [1] 0.126 | [2] 0.091 | [3] 0.013 | [4] 0.086 | [5] 0.01 | [6] -0.032 | [7] 0.019 | [8] -0.108 | IRAK-1-4 Inhibitor I -0.005 | ibrutinib 0.006 | [9] -0.014 | ralimetinib -0.046 | [10] 0.077 | [11] -0.09 | [12] 0.009 | [13] 0.019 | [14] 0.017 | [15] 0.047 | [16] 0.026

FN1 (UniProt P02751)
inactive: erlotinib -0.015 | [1] -0.054 | [2] 0.025 | [3] 0.053 | [4] 0.113 | [5] 0.034 | [6] 0.059 | [7] -0.06 | [8] -0.007 | IRAK-1-4 Inhibitor I -0.025 | ibrutinib 0.02 | [9] -0.019 | ralimetinib -0.001 | [10] -0.018 | [11] -0.015 | [12] 0.022 | [13] -0.039 | [14] -0.004 | [15] 0.046 | [16] -0.012

FH (UniProt P07954)
inactive: erlotinib -0.008 | [1] 0.055 | [2] -0.008 | [3] 0.033 | [4] 0 | [5] -0.024 | [6] 0.034 | [7] -0.019 | [8] 0.021 | IRAK-1-4 Inhibitor I 0 | ibrutinib -0.003 | [9] 0.008 | ralimetinib -0.026 | [10] -0.005 | [11] -0.011 | [12] -0.036 | [13] 0.029 | [14] -0.002 | [15] 0.005 | [16] 0.008

FIBP (UniProt O43427)
inactive: erlotinib -0.071 | [1] -0.027 | [2] 0.022 | [3] 0.067 | [4] 0.018 | [5] 0.041 | [6] 0.079 | [7] -0.064 | [8] 0.029 | IRAK-1-4 Inhibitor I 0.006 | ibrutinib 0.015 | [9] 0.02 | ralimetinib 0.032 | [10] -0.026 | [11] 0.028 | [12] 0.057 | [13] 0.036 | [14] 0.01 | [15] 0.024 | [16] 0.011

FGGY isoform 3 (UniProt Q96C11)
inactive: erlotinib -0.049 | [1] -0.014 | [2] 0.045 | [3] 0.036 | [4] -0.219 | [5] -0.01 | [6] -0.094 | [7] -0.088 | [8] -0.086 | IRAK-1-4 Inhibitor I 0.002 | ibrutinib 0.279 | [9] -0.042 | ralimetinib -0.029 | [10] -0.006 | [11] -0.046 | [12] -0.022 | [13] 0.033 | [14] 0.122 | [15] -0.073 | [16] 0.025

FERMT2 isoform 3 (UniProt Q96AC1)
inactive: erlotinib -0.01 | [1] 0.063 | [2] -0.046 | [3] 0.008 | [4] 0.014 | [5] -0.051 | [6] 0.026 | [7] 0.023 | [8] 0.02 | IRAK-1-4 Inhibitor I 0.006 | ibrutinib 0.027 | [9] -0.004 | ralimetinib 0.006 | [10] -0.007 | [11] 0.051 | [12] -0.059 | [13] -0.037 | [14] 0.019 | [15] 0.007 | [16] -0.055

FBXO30 (UniProt Q8TB52)
inactive: erlotinib 0.006 | [1] -0.064 | [2] -0.031 | [3] 0.014 | [4] -0.038 | [5] -0.008 | [6] 0.042 | [7] -0.014 | [8] -0.007 | IRAK-1-4 Inhibitor I -0.018 | ibrutinib 0.022 | [9] -0.007 | ralimetinib 0.057 | [10] 0.046 | [11] -0.009 | [12] -0.003 | [13] 0.013 | [14] 0.016 | [15] 0.006 | [16] 0.016

FHOD1 (UniProt Q9Y613)
inactive: erlotinib 0.005 | [1] 0.021 | [2] 0 | [3] 0.048 | [4] -0.02 | [5] -0.011 | [6] -0.016 | [7] -0.011 | [8] -0.009 | IRAK-1-4 Inhibitor I -0.008 | ibrutinib 0.001 | [9] 0.03 | ralimetinib 0.041 | [10] -0.019 | [11] -0.002 | [12] -0.006 | [13] 0.006 | [14] 0.003 | [15] 0.025 | [16] -0.004

FBXO42 (UniProt Q6P3S6)
inactive: erlotinib 0.031 | [1] 0.008 | [2] 0.002 | [3] -0.03 | [4] -0.073 | [5] -0.063 | [6] -0.023 | [7] -0.059 | [8] -0.011 | IRAK-1-4 Inhibitor I 0.012 | ibrutinib 0.021 | [9] -0.01 | ralimetinib -0.002 | [10] 0 | [11] 0.006 | [12] 0.022 | [13] -0.042 | [14] -0.011 | [15] 0.04 | [16] 0.061

FASTKD2 (UniProt Q9NYY8)
inactive: erlotinib 0.028 | [1] 0.041 | [2] -0.005 | [3] 0.03 | [4] 0.019 | [5] -0.007 | [6] -0.018 | [7] 0.013 | [8] 0.002 | IRAK-1-4 Inhibitor I 0.016 | ibrutinib -0.008 | [9] -0.006 | ralimetinib -0.004 | [10] -0.039 | [11] -0.013 | [12] 0.003 | [13] -0.007 | [14] 0.034 | [15] -0.001 | [16] 0.024

Random excerpt: two entries already listed, in no set order.
FBXO30 (UniProt Q8TB52)
inactive: erlotinib 0.006 | [1] -0.064 | [2] -0.031 | [3] 0.014 | [4] -0.038 | [5] -0.008 | [6] 0.042 | [7] -0.014 | [8] -0.007 | IRAK-1-4 Inhibitor I -0.018 | ibrutinib 0.022 | [9] -0.007 | ralimetinib 0.057 | [10] 0.046 | [11] -0.009 | [12] -0.003 | [13] 0.013 | [14] 0.016 | [15] 0.006 | [16] 0.016

FERMT2 isoform 3 (UniProt Q96AC1)
inactive: erlotinib -0.01 | [1] 0.063 | [2] -0.046 | [3] 0.008 | [4] 0.014 | [5] -0.051 | [6] 0.026 | [7] 0.023 | [8] 0.02 | IRAK-1-4 Inhibitor I 0.006 | ibrutinib 0.027 | [9] -0.004 | ralimetinib 0.006 | [10] -0.007 | [11] 0.051 | [12] -0.059 | [13] -0.037 | [14] 0.019 | [15] 0.007 | [16] -0.055

The listing continues:

FLNA (UniProt P21333)
inactive: erlotinib 0.013 | [1] 0.044 | [2] 0.006 | [3] -0.011 | [4] -0.002 | [5] -0.003 | [6] 0.002 | [7] -0.002 | [8] 0.013 | IRAK-1-4 Inhibitor I 0.015 | ibrutinib 0 | [9] -0.01 | ralimetinib 0.006 | [10] -0.024 | [11] 0.01 | [12] -0.016 | [13] 0.028 | [14] 0.032 | [15] -0.009 | [16] -0.002

FDFT1 (UniProt P37268)
inactive: erlotinib -0.002 | [1] -0.072 | [2] -0.038 | [3] 0.176 | [4] 0.001 | [5] 0.211 | [6] 0.115 | [7] 0.005 | [8] 0.024 | IRAK-1-4 Inhibitor I -0.014 | ibrutinib -0.004 | [9] -0.014 | ralimetinib -0.014 | [10] 0.018 | [11] 0.013 | [12] -0.034 | [13] -0.028 | [14] -0.02 | [15] 0.017 | [16] 0.012

FGFR1OP (UniProt O95684)
inactive: erlotinib 0.005 | [1] -0.072 | [2] 0.009 | [3] -0.012 | [4] 0.004 | [5] 0.01 | [6] 0.006 | [7] 0.035 | [8] 0.008 | IRAK-1-4 Inhibitor I 0.017 | ibrutinib 0.012 | [9] -0.006 | ralimetinib 0.022 | [10] -0.019 | [11] 0.002 | [12] 0.01 | [13] 0.015 | [14] -0.004 | [15] -0.011 | [16] -0.012
